Several values for one entry are separate records, joined by “and”; a condition that tells them apart may be missing. Equal values may be shown once. Some of the results follow. Shown are side measurements of this screen, not its main read-out; they come without a call. The list favours compounds with an active or inconclusive main result. The note in brackets gives the kind of curve behind each potency; many fits are weak.
Assay: qHTS Assay to Find Inhibitors of Chronic Active B-Cell Receptor Signaling
Details: ABC-DLBCL IkBa-CBG/CBR reporter, luminescence ratio (green luciferase fused to IkBa over red control in TMD8 lymphoma cells), 4 h
Method in brief: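 Cell line TMD8 (human ABC DLBCL), stably expressing tet-inducible CBG68-IkBa fusion and CBR; IMDM/0.5% FBS; cpd up to 46 uM; dox induction, 4 h, 37C/5% CO2; dual luminescence; green/red ratio; MG132 control.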

[1] = measured here: CBR red luminescence, cell number
[2] = measured here: IkBa-CBG green luminescence

SMILES | AC50 [1] | AC50 [2]
Cc1ccc(/C(N)=N/OC(=O)CCc2ccccc2)cc1 | 10 µM [rising, partial curve] | 
O=c1c2ccccc2nnn1CSc1ccc2ccccc2n1 | 25.9 µM [falling, single point] | 
COc1ccc(CNC(=O)CN2CCN(c3ccccc3O)CC2)cc1OC | 3.16 µM [rising, single point] | 
CCCOc1ccc2cc(-c3ccccn3)c(=O)oc2c1 | 3.66 µM [falling, partial curve, poor fit] | 
O=C(OCCN1CCOCC1)c1ccccc1 | 12.6 µM [rising, partial curve, poor fit] | 
CC(C)(C)c1ccc(/C=N/Nc2ccc(C(=O)O)cc2)cc1 | 0.0731 µM [falling, full curve] | 
COc1cccc(C(=O)NN/C(C)=C/C(=O)C(F)(F)C(F)(F)C(F)(F)F)c1 | 2.06 µM [falling, full curve] | 
O=C(N/N=C/c1ccccn1)c1ccc(Cl)c(Cl)c1 | 3.55 µM [rising, single point] | 4.47 µM [falling, single point]
CCOC(=O)C1CCCN(C2CC(=O)N(c3cccc(C)c3)C2=O)C1 (stereo not drawn) | 0.708 µM [falling, partial curve, poor fit] | 
COc1ccc(CCNC(=O)c2cc(-c3ccccc3)on2)cc1OC | 29.1 µM [falling, single point] | 
O=C(NCCC1=CCCCC1)c1coc(=O)c(Br)c1 | 1.78 µM [rising, partial curve] | 14.1 µM [falling, partial curve, poor fit]
CS(=O)(=O)N(CC(=O)Nc1ccccc1Sc1ccccc1)C1CCCCC1 | 0.00651 µM [falling, full curve] | 
CC1=C(C(N)=O)C(c2cccc(OCc3ccccc3)c2)n2nnnc2N1 (stereo not drawn) | 0.891 µM [falling, full curve, poor fit] | 
COc1ccc(N(C)C(=O)c2ccc3c(Cl)c4c(nc3c2)CCCC4)c(OC)c1 | 10 µM [falling, partial curve] | 
O=S(=O)(c1ccc2c(c1)C(=NO)c1cc(S(=O)(=O)N3CCCCC3)ccc1-2)N1CCCCC1 | 0.501 µM [rising, full curve, poor fit] | 
O=C(Oc1ccc2ccc(OC(=O)N3CCOCC3)cc2c1)N1CCOCC1 | 20.6 µM [rising, single point] | 29.1 µM [falling, partial curve, poor fit]
Cc1ccccc1NC(=O)c1cc2ccccc2o1 | 3.98 µM [falling, partial curve] and 14.1 µM [falling, partial curve, poor fit] | 
COc1ccc(-c2n(Cc3ccccc3)c3ccccc3[n+]2Cc2ccccc2)cc1 | 7.08 µM [falling, partial curve] | 
N#Cc1nc(N2CCCCC2)nc(N2CCOCC2)n1 |  | 8.2 µM [falling, partial curve, poor fit]
O=C(CCc1ccccc1)N/N=C\C1CC=CCC1 (stereo not drawn) | 0.891 µM [rising, partial curve, poor fit] | 
C/C(Cl)=C/Cn1c(SCc2ccc(Cl)cc2)nc2c1c(=O)[nH]c(=O)n2C | 4.11 µM [rising, partial curve, poor fit] | 

SMILES | AC50 [1] | AC50 [2]
CC(=O)N1CCN(c2nc(-c3cccs3)nc3ccccc23)CC1 | 8.91 µM [falling, partial curve] | 
CCOc1ccccc1Nc1nnc(SCC(=O)N2CCCC2)s1 | 14.6 µM [falling, partial curve, poor fit] | 
CCN(CC)CCNC(=O)c1ccc(NC(=O)c2cn(-c3ccccc3)nc2-c2cccs2)cc1 | 2.82 µM [falling, partial curve, poor fit] | 
CC(=O)Nc1ccc(S(=O)(=O)N(C)c2ccc(O)cc2)cc1 | 3.16 µM [falling, full curve, poor fit] | 
Cc1ccc(NC(=O)c2ccc(Cl)c(N3C(=O)C=CC3=O)c2)cc1 | 15.8 µM [falling, partial curve, poor fit] | 
Fc1ccccc1/C=C1\CCCC2=C1Nc1nnnn1C2c1ccccc1F (stereo not drawn) | 35.5 µM [falling, single point] | 
O=C(CNC(=S)N(Cc1ccccc1)Cc1ccccc1F)NCCc1ccc(Cl)cc1 | 35.5 µM [falling, single point] | 
O=C(COC(=O)/C=C/c1cn(-c2ccccc2)nc1-c1cccnc1)Nc1ccc(Cl)cc1Cl | 18.4 µM [falling, single point] | 
O=[N+]([O-])c1cc(/C=N/O)ccc1Sc1ccccc1 | 0.326 µM [rising, full curve, poor fit] | 7.31 µM [falling, partial curve]
CCO[C@@H]1OC(C(=O)NCc2ccccc2)=C[C@H](c2coc3ccccc3c2=O)[C@H]1CCCO | 11.2 µM [rising, partial curve] | 
COc1ccc(C2CN=NC2C(=O)c2ccccc2)cc1 (stereo not drawn) | 15.8 µM [rising, single point] | 
Cc1ccc(NC(=O)CN(C)C(=O)Cn2ncc(Cl)c(Cl)c2=O)cc1 | 5.8 µM [falling, full curve] | 
COc1cc(/C=N\NC(=O)c2cccc(Cl)c2)ccc1Oc1ccc([N+](=O)[O-])cn1 | 7.08 µM [falling, partial curve] | 
CC1(CC(=O)N/N=C/c2cc3c(cc2Br)OCO3)OCCO1 | 14.1 µM [falling, partial curve, poor fit] | 
O=C(O)COc1ccccc1/C=C1\SC(=Nc2ccc(F)cc2)N(c2ccc(F)cc2)C1=O | 20 µM [falling, partial curve] | 
CCNC(=S)N/N=C/c1ccc(-c2ccccc2)o1 | 0.366 µM [rising, full curve, poor fit] | 
COc1ccccc1OCCNC(=O)CN(c1cccc(C)c1)S(=O)(=O)c1ccccc1 | 8.91 µM [falling, partial curve, poor fit] | 
CC(=O)c1cccc(NC(=O)CN(c2ccccc2F)S(C)(=O)=O)c1 | 23.1 µM [falling, single point] | 
O=C(CCCc1c[nH]c2ccccc12)Nc1ccc2ccccc2c1 | 29.1 µM [falling, single point] | 
COC(=O)c1ccc(Nc2c([N+](=O)[O-])c(=O)oc3ccccc23)cc1 | 11.2 µM [falling, partial curve] | 
CCCCOc1ccc(C(=O)Nc2ccc(C)cc2[N+](=O)[O-])cc1 | 0.82 µM [rising, full curve, poor fit] | 

Entries of single compounds, looked up by structure:
`O=C(CCCc1c[nH]c2ccccc12)Nc1ccc2ccccc2c1` is listed with AC50 [1]: 29.1 µM [falling, single point]
`CCNC(=S)N/N=C/c1ccc(-c2ccccc2)o1` is listed with AC50 [1]: 0.366 µM [rising, full curve, poor fit]
`CCOc1ccccc1Nc1nnc(SCC(=O)N2CCCC2)s1` is listed with AC50 [1]: 14.6 µM [falling, partial curve, poor fit]

More records

SMILES | AC50 [1] | AC50 [2]
Cc1nc(N)sc1C(=O)N/N=C/c1c[nH]c2ccccc12 | 5.8 µM [falling, partial curve, poor fit] | 
Cc1[nH]n(C(N)=S)c(=O)c1N=Nc1cccc(Cl)c1 | 35.5 µM [falling, single point] | 0.631 µM [falling, partial curve, poor fit]
CC(C)N1C(=O)S/C(=C/c2ccccc2OCc2ccc(C(=O)O)cc2)C1=O | 10 µM [falling, partial curve, poor fit] | 
COc1ccccc1N1CCN(C(=O)c2cc(=O)c3cc(C)ccc3o2)CC1 | 3.16 µM [rising, single point] | 
COCCN(Cc1ccccc1)C(=S)Nc1ccc(Cl)cc1 | 6.31 µM [rising, partial curve, poor fit] | 
C=C(C)C(=O)Nc1cccc(C2=NOC3(C2)C[C@@H](C(N)=O)N(C(=O)/C=C/C=C/C)C3)c1 (stereo partly drawn) | 35.5 µM [rising, single point] | 
CCN(C(=O)c1cccs1)c1nnc(-c2ccncc2)s1 | 29.1 µM [rising, partial curve, poor fit] | 
Cn1c(C(=O)N[C@@H](Cc2ccccc2)C(=O)NCCC(=O)O)cc2cc(Cl)ccc21 | 31.6 µM [falling, single point] | 
O=C(NNc1cccc(Cl)n1)c1ccc(Cl)cc1Cl | 1.12 µM [rising, full curve, poor fit] | 
CN(Cc1ccccc1)c1ccc(N2C(=O)CCC2=O)cc1[N+](=O)[O-] | 14.1 µM [rising, single point] | 
CC(C)n1cnc2c(Nc3cccc(F)c3)nc(NCCO)nc21 | 8.91 µM [falling, partial curve] | 
CC(=O)NC(=S)Nc1ccc(NC(=O)c2cccs2)cc1 | 20.6 µM [falling, single point] | 
CCOC(=O)Nc1ccc2nc(Sc3ccc(Cl)cc3)sc2c1 | 35.5 µM [rising, single point] | 
COc1cc(C(=O)NCc2cc(C)nc3ccccc23)cc(OC)c1OC | 35.5 µM [rising, single point] | 10 µM [falling, partial curve]
CC1CC(C)(C)NC(C)c2ccccc21 (stereo not drawn) | 35.5 µM [rising, single point] | 
CC1CC(C)CN(C(=O)COC(=O)C2CCN(S(=O)(=O)c3ccc4c(c3)OCCO4)CC2)C1 (stereo not drawn) | 29.1 µM [falling, single point] | 
CC(C)CC(=O)N/C(N)=N/c1nc2ccccc2s1 | 20.6 µM [falling, partial curve] | 
O=C(NN=C1CCCC1)c1n[nH]c2c1CCC2 | 7.94 µM [rising, partial curve] | 4.47 µM [falling, full curve]
Cc1cccc(N2CCN(C(=S)NC3CCCCC3)CC2)c1C | 35.5 µM [falling, single point] | 
